Measurements published in PMC8355244, “A fragment-based approach identifies an allosteric pocket that impacts malate dehydrogenase activity” (Communications Biology, 2021).
Where “and” joins values, the source holds several entries; their conditions need not be identical. Equal entries are not always repeated. The source gives many values for each of these; only a part stands here.

The chains behind the UniProt entries cited, without tags or fusion partners.
UniProt Q6VVP7, entry or part of it: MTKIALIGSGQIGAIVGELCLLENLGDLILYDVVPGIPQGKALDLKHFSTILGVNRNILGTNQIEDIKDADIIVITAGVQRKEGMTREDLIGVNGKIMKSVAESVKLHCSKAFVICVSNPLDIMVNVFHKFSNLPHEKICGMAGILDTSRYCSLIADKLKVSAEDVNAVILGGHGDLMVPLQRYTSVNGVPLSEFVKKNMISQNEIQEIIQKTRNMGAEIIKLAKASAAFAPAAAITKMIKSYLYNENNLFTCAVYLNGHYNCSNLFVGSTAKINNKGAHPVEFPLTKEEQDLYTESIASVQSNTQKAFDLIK

Target: T1, PfMDH (Plasmodium falciparum, UniProt Q6VVP7)
T1 construct: The full-length WT PfMDH gene was cloned into pETM-13; made in house; host or cells: E. coli Rosetta 2 (DE3) pLysS
Assay: Thermal shift assay (TSA)
Assay type: binding
Conditions: for TSA melting curve raw signal: triplicate columns; for TSA melting curve raw fluorescence signal: three replicate columns
How it was run: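 10 μM PfMDH with 1 mM compound in 100 mM Na–phosphate pH 7.4, 400 mM NaCl, 10× Sypro Orange; 1% DMSO controls. Melting inflection points taken as Tm; shifts >1 °C read as stabilization, negative shifts as destabilization.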

Nc1nc(-c2ccc(F)c(F)c2)cs1 [4DT, 4-(3,4-difluorophenyl) thiazol-2-amine]
TSA melting curve raw signal (Temperature 25.5): 3310.109 and 3348.575 and 3329.174
TSA melting curve raw signal (Temperature 26): 3314.157 and 3354.289 and 3333.547
TSA melting curve raw signal (Temperature 26.5): 3318.205 and 3360.004 and 3337.921
TSA melting curve raw signal (Temperature 27): 3322.253 and 3365.718 and 3342.294
TSA melting curve raw signal (Temperature 27.5): 3326.301 and 3371.433 and 3346.667
TSA melting curve raw signal (Temperature 28): 3330.349 and 3377.147 and 3351.041
TSA melting curve raw signal (Temperature 44.5): 3878.808 and 4006.869
TSA melting curve raw signal (Temperature 45): 3945.234 and 3935.56 and 4074.644
TSA melting curve raw signal (Temperature 45.5): 4013.389 and 3998.012 and 4148.379
TSA melting curve raw signal (Temperature 46): 4087.29 and 4066.185 and 4228.076
TSA melting curve raw signal (Temperature 46.5): 4166.849 and 4140.566 and 4313.761
TSA melting curve raw signal (Temperature 47): 4252.237 and 4221.386 and 4404.698
TSA melting curve raw signal (Temperature 47.5): 4343.677 and 4308.943 and 4501.15
TSA melting curve raw signal (Temperature 48): 4441.151 and 4404.384 and 4603.168
TSA melting curve raw signal (Temperature 48.5): 4544.565 and 4507.944 and 4710.806
TSA melting curve raw signal (Temperature 49): 4653.77 and 4619.725 and 4823.933
TSA melting curve raw signal (Temperature 49.5): 4768.71 and 4739.543 and 4942.399
TSA melting curve raw signal (Temperature 50): 4888.706 and 4866.921 and 5065.408
TSA melting curve raw signal (Temperature 50.5): 5013.787 and 5000.512 and 5192.658
TSA melting curve raw signal (Temperature 51): 5144.887 and 5141.084 and 5324.839
TSA melting curve raw signal (Temperature 51.5): 5283.178 and 5289.047 and 5462.277
TSA melting curve raw signal (Temperature 52): 5428.491 and 5444.876 and 5605.02
TSA melting curve raw signal (Temperature 52.5): 5582.512 and 5609.134 and 5754.355
TSA melting curve raw signal (Temperature 53): 5745.97 and 5783.142 and 5910.997
TSA melting curve raw signal (Temperature 53.5): 5918.26 and 5965.92 and 6074.314
TSA melting curve raw signal (Temperature 54): 6098.955 and 6156.778 and 6243.942
TSA melting curve raw signal (Temperature 54.5): 6288.304 and 6354.987 and 6420.63
TSA melting curve raw signal (Temperature 55): 6484.198 and 6559.011 and 6602.626
TSA melting curve raw signal (Temperature 55.5): 6685.144 and 6766.639 and 6788.956
TSA melting curve raw signal (Temperature 56): 6889.937 and 6976.846 and 6978.834
TSA melting curve raw signal (Temperature 56.5): 7094.983 and 7186.922 and 7170.125
TSA melting curve raw signal (Temperature 57): 7297.654 and 7395.093 and 7360.935
TSA melting curve raw signal (Temperature 57.5): 7495.165 and 7599.526 and 7549.74
TSA melting curve raw signal (Temperature 58): 7683.198 and 7796.82 and 7732.645
TSA melting curve raw signal (Temperature 58.5): 7857.399 and 7983.142 and 7906.06
TSA melting curve raw signal (Temperature 59): 8014.791 and 8155.418 and 8067.084
TSA melting curve raw signal (Temperature 59.5): 8151.416 and 8309.186 and 8210.668
TSA melting curve raw signal (Temperature 60): 8264.099 and 8440.191 and 8333.004
TSA melting curve raw signal (Temperature 60.5): 8351.613 and 8546.411 and 8432.064
TSA melting curve raw signal (Temperature 61): 8412.863 and 8625.875 and 8506.009
TSA melting curve raw signal (Temperature 61.5): 8449.209 and 8678.985 and 8554.815
TSA melting curve raw signal (Temperature 62): 8462.896 and 8706.994 and 8580.477
TSA melting curve raw signal (Temperature 62.5): 8457.116 and 8712.987 and 8585.559
TSA melting curve raw signal (Temperature 63): 8434.912 and 8700.475 and 8573.243
TSA melting curve raw signal (Temperature 63.5): 8401.07 and 8674.039 and 8546.913
TSA melting curve raw signal (Temperature 64): 8358.615 and 8636.75 and 8509.814
TSA melting curve raw signal (Temperature 64.5): 8310.063 and 8592.42 and 8464.811
TSA melting curve raw signal (Temperature 65): 8257.814 and 8543.36 and 8414.074
TSA melting curve raw fluorescence signal (Temperature 65.5): 8203.884 and 8491.234 and 8359.323
TSA melting curve raw fluorescence signal (Temperature 66): 8148.595 and 8436.96 and 8302.463
TSA melting curve raw fluorescence signal (Temperature 66.5): 8092.379 and 8381.707 and 8243.933
TSA melting curve raw fluorescence signal (Temperature 67): 8035.836 and 8325.947 and 8184.645
TSA melting curve raw fluorescence signal (Temperature 67.5): 7979.211 and 8270.06 and 8125.088
TSA melting curve raw fluorescence signal (Temperature 68): 7922.502 and 8214.456 and 8065.789
TSA melting curve raw fluorescence signal (Temperature 68.5): 7865.726 and 8159.213 and 8006.473
TSA melting curve raw fluorescence signal (Temperature 69): 7808.933 and 8104.228 and 7947.546
TSA melting curve raw fluorescence signal (Temperature 69.5): 7752.132 and 8048.808 and 7888.309
TSA melting curve raw fluorescence signal (Temperature 70): 7695.022 and 7993.407 and 7829.19
TSA melting curve raw fluorescence signal (Temperature 70.5): 7637.795 and 7937.714 and 7770.069
TSA melting curve raw fluorescence signal (Temperature 71): 7580.973 and 7881.942 and 7711.563
TSA melting curve raw fluorescence signal (Temperature 71.5): 7524.79 and 7826.153 and 7653.83
TSA melting curve raw fluorescence signal (Temperature 72): 7469.045 and 7771.204 and 7597.586
TSA melting curve raw fluorescence signal (Temperature 72.5): 7414.194 and 7716.604 and 7542.506
TSA melting curve raw fluorescence signal (Temperature 73): 7360.049 and 7662.598 and 7488.737
TSA melting curve raw fluorescence signal (Temperature 90): 5884.201 and 5750.825
TSA melting curve raw fluorescence signal (Temperature 90.5): 5583.58 and 5832.95 and 5700.754
TSA melting curve raw fluorescence signal (Temperature 91): 5534.239 and 5782.459 and 5651.249
TSA melting curve raw fluorescence signal (Temperature 91.5): 5485.437 and 5732.541 and 5602.45
TSA melting curve raw fluorescence signal (Temperature 92): 5436.675 and 5683.158 and 5554.509
TSA melting curve raw fluorescence signal (Temperature 92.5): 5388.401 and 5634.075 and 5506.779
TSA melting curve raw fluorescence signal (Temperature 93): 5340.709 and 5584.743 and 5459.066
TSA melting curve raw fluorescence signal (Temperature 93.5): 5293.026 and 5535.668 and 5411.656
TSA melting curve raw fluorescence signal (Temperature 94): 5246.665 and 5487.053 and 5364.483
TSA melting curve raw fluorescence signal (Temperature 94.5): 5200.592 and 5438.486 and 5317.25
TSA melting curve raw fluorescence signal (Temperature 95): 5156.993 and 5390.804 and 5270.513
